Measured values taken from PubChem BioAssay AID330 (DTP/NCI, 2004).
The list is a part of this screen's results and no random one: it is rich in T/C values a quarter to a half above the control, in often repeated tests (any T/C) and in doses without a T/C. Further doses and runs are listed elsewhere. T/C gives the treated animals as a percentage of the vehicle group. Some doses have a count of surviving animals in place of a T/C: the source holds a T/C of zero for them, seemingly a mark for toxic or unscored doses. Some survivor counts are full or nearly so, which does not show that the dose was tolerated: the source hardly ever lists a survival T/C far under the control, and the zero likely stands for such cases as well. Counts of survivors are from the toxicity check (mostly the fifth day) where no day follows; animals may have died later. Schedules are NCI's codes, read here as Q, the interval in days (D) or hours (H), X, the number of doses. Some entries were tested several times; the values are given in rising order. Where survival is the endpoint, this PubChem deposit counts one and a half times the control or more as active, and values a quarter to a half above the control carry no call in these data; other NCI protocols may use other cut-offs. Some T/C values carry the count of animals alive at the toxicity check (mostly the fifth day); without a count, all were alive then.

System: P388 leukemia ip, CD2F1 mice, survival T/C
Assay: NCI In Vivo Anticancer Drug Screen. Data for tumor model P388 Leukemia (intraperitoneal) in CD2F1 (CDF1) mice
Details: T/C endpoint: median survival time, higher T/C = longer survival
[1] = dose: 100.0 mg/kg/injection, schedule: Q01DX005 (ip), vehicle: saline with Tween-80
[2] = dose: 64.0 mg/kg/injection, schedule: Q01DX001 (ip), vehicle: water
[3] = dose: 25.0 mg/kg/injection, schedule: Q01DX009 (ip), vehicle: saline with Tween-80
[4] = dose: 50.0 mg/kg/injection, schedule: Q01DX009 (ip), vehicle: saline with Tween-80
[5] = dose: 100.0 mg/kg/injection, schedule: Q01DX009 (ip), vehicle: saline with Tween-80
[6] = dose: 100.0 mg/kg/injection, schedule: Q01DX009 (ip), vehicle: saline
[7] = dose: 50.0 mg/kg/injection, schedule: Q01DX009 (ip), vehicle: saline
[8] = dose: 200.0 mg/kg/injection, schedule: Q01DX009 (ip), vehicle: saline with Tween-80
[9] = dose: 120.0 mg/kg/injection, schedule: Q01DX005 (ip), vehicle: Klucel (hydroxypropylcellulose) (HPC)
[10] = dose: 240.0 mg/kg/injection, schedule: Q01DX005 (ip), vehicle: Klucel (hydroxypropylcellulose) (HPC)

With `CCC1=CCC2C(=O)c3cc4ccccc4cc3C(=O)C2C1` (stereo unspecified) the survivor count (dose: 50.0 mg/kg/injection, schedule: Q01DX005 (ip), vehicle: saline with Tween-80) was 5 of 5 and the survivor count [1] was 0 of 5.
With `COc1cc2c(c3oc4c(O)cccc4c(=O)c13)CC(C(C)(O)CCl)O2` (stereo unspecified) the T/C (dose: 8.0 mg/kg/injection, schedule: Q01DX009 (ip), vehicle: saline + alcohol) was 132 % of control.
With `CC1(c2ccc(S(=O)(=O)c3ccccc3)cc2)OC(=O)C=CC1=O` (stereo unspecified) the survivor count [1] was 2 of 6 and the survivor count (dose: 200.0 mg/kg/injection, schedule: Q01DX005 (ip), vehicle: saline with Tween-80) was 0 of 6.
`CCCCC([Se])=NCCC(C)C` was tested, and the survivor count (dose: 50.0 mg/kg/injection, schedule: Q01DX009 (ip), vehicle: Klucel (hydroxypropylcellulose) (HPC)) was 0 of 6, the survivor count (dose: 100.0 mg/kg/injection, schedule: Q01DX009 (ip), vehicle: Klucel (hydroxypropylcellulose) (HPC)) was 0 of 6 and the survivor count (dose: 200.0 mg/kg/injection, schedule: Q01DX009 (ip), vehicle: Klucel (hydroxypropylcellulose) (HPC)) was 0 of 6.
In the case of `CC12CC(OC(=O)[C@]1(C)O)[C@@H]([C@]1(O)CC[C@H]3[C@@H]4C[C@H]5O[C@]56[C@@H](O)C=CC(=O)[C@]6(C)[C@H]4CC[C@@]31C)C2` (stereo partly specified), the T/C (dose: 16.0 mg/kg/injection, schedule: Q01DX005 (ip), vehicle: saline + alcohol) is reported as 127 % of control, the survivor count (dose: 32.0 mg/kg/injection, schedule: Q01DX005 (ip), vehicle: saline + alcohol) is reported as 0 of 6 and 4 of 6 and the survivor count (dose: 64.0 mg/kg/injection, schedule: Q01DX005 (ip), vehicle: saline + alcohol) is reported as 4 of 6. The survivor count (dose: 128.0 mg/kg/injection, schedule: Q01DX005 (ip), vehicle: saline + alcohol) was 0 of 6.
In the case of `CC1OC(OCc2ccc(-c3ccccc3)cc2)CC(N)C1O` (stereo unspecified), the survivor count (dose: 50.0 mg/kg/injection, schedule: Q01DX009 (ip), vehicle: water) is reported as 0 of 6.
With `CC[C@@]12CN3CCc4c([nH]c5ccccc45)[C@@](C(=O)OC)(c4cc5c(cc4OC)N(C=O)[C@H]4[C@@](O)(C(=O)OC)[C@H](OC(C)=O)[C@]6(CC)C=CCN7CC[C@]54[C@@H]76)C[C@H](C3=O)[C@@H]1O2` the T/C (dose: 16.0 mg/kg/injection, schedule: Q01DX001 (ip), vehicle: water) was 125 and 126 % of control, the T/C (dose: 32.0 mg/kg/injection, schedule: Q01DX001 (ip), vehicle: water) was 144 % of control and the T/C [2] was 131 % of control. For the same compound, the survivor count [2] was 2 of 6.
`O=S(=O)(CCl)OCCCCOS(=O)(=O)CCl` was tested, and the T/C [3] was 127 % of control, the T/C [4] was 131 % of control and the T/C [5] was 145 % of control [5 of 6 alive]. For the same compound, the T/C [6] was 133 % of control.
For `O=C1c2ccccc2C(=O)c2c3c(cc(NCCNCCO)c21)N(CCO)CCN3`, the T/C (dose: 25.0 mg/kg/injection, schedule: Q01DX009 (ip), vehicle: DMSO) was 135 % of control.
With `COc1ccc2c(c1)C13CCCCC1C(C2)N(C)CC3` (stereo unspecified) the survivor count (dose: 100.0 mg/kg/injection, schedule: Q01DX005 (ip), vehicle: saline) was 3 of 6 and the survivor count (dose: 200.0 mg/kg/injection, schedule: Q01DX005 (ip), vehicle: saline) was 0 of 6.
In the case of `CNC(=O)OCc1c(COC(=O)NC)c(C)n(-c2ccc(Cl)cc2)c1C`, the T/C (dose: 12.5 mg/kg/injection, schedule: Q01DX009 (ip), vehicle: saline) is reported as 145 % of control, the T/C (dose: 25.0 mg/kg/injection, schedule: Q01DX009 (ip), vehicle: saline) is reported as 142 % of control and the survivor count [7] is reported as 5 of 6 and 6 of 6.
In the case of `COC(=O)c1c(COC(=O)NC(C)C)c2n(c1C)CS(=O)(=O)C2`, the survivor count [1] is reported as 4 of 6.
`Cc1cc(Cl)ccc1-n1nc(C)c2c(N)nc(N)nc21` was tested, and the survivor count (dose: 400.0 mg/kg/injection, schedule: Q04DX003 (ip), vehicle: Klucel (hydroxypropylcellulose) (HPC)) was 0 of 6.
For `C[CH2][Sn][Cl]`, the survivor count [7] was 0 of 6, the survivor count [6] was 0 of 6 and the survivor count (dose: 200.0 mg/kg/injection, schedule: Q01DX009 (ip), vehicle: saline) was 5 of 6.
For `COc1ccc2c(ccc3c(N)ncnc32)c1`, the survivor count (dose: 400.0 mg/kg/injection, schedule: Q04DX002 (ip), vehicle: saline with Tween-80) was 2 of 6.
In the case of `CCCCC(=O)c1c(O)c2ccccc2oc1=O`, the survivor count (dose: 120.0 mg/kg/injection, schedule: Q01DX005 (ip), vehicle: saline with Tween-80) is reported as 1 of 6 and the survivor count (dose: 240.0 mg/kg/injection, schedule: Q01DX005 (ip), vehicle: saline with Tween-80) is reported as 0 of 6.
For `CCNC(=O)OCc1c(COC(=O)NCC)c2n(c1C)CCc1ccccc1-2`, the T/C (dose: 1.56 mg/kg/injection, schedule: Q01DX009 (ip), vehicle: distilled water + Tween-80) was 125 % of control, the T/C (dose: 3.12 mg/kg/injection, schedule: Q01DX009 (ip), vehicle: distilled water + Tween-80) was 142 % of control and the T/C (dose: 6.25 mg/kg/injection, schedule: Q01DX009 (ip), vehicle: distilled water + Tween-80) was 141 % of control. The survivor count (dose: 25.0 mg/kg/injection, schedule: Q01DX009 (ip), vehicle: distilled water + Tween-80) was 5 of 6, the survivor count (dose: 50.0 mg/kg/injection, schedule: Q01DX009 (ip), vehicle: distilled water + Tween-80) was 1 of 6 and the survivor count (dose: 100.0 mg/kg/injection, schedule: Q01DX009 (ip), vehicle: distilled water + Tween-80) was 0 of 6. For the same compound, the survivor count (dose: 200.0 mg/kg/injection, schedule: Q01DX009 (ip), vehicle: distilled water + Tween-80) was 0 of 6.
`C(=Nc1ccccc1)Nc1ccccc1.[Cu+2]` was tested, and the survivor count [3] was 1 of 6 and 2 of 6, the survivor count [4] was 0 of 6 and the survivor count [5] was 0 of 6. The survivor count [8] was 0 of 6.
`NC(=O)/C=C/C(N)=O` was tested, and the survivor count (dose: 400.0 mg/kg/injection, schedule: Q04DX003 (ip), vehicle: saline with Tween-80) was 3 of 6.
For `[N-]=[N+]=NC(=O)Nc1cccc(C(F)(F)F)c1`, the survivor count (dose: 120.0 mg/kg/injection, schedule: Q01DX005 (ip), vehicle: Klucel + Tween-80) was 4 of 6 and the survivor count (dose: 240.0 mg/kg/injection, schedule: Q01DX005 (ip), vehicle: Klucel + Tween-80) was 0 of 6.
For `CC1CCCC(C)N1CC#CCNC(=O)C1CCC(=O)N1` (stereo unspecified), the survivor count (dose: 200.0 mg/kg/injection, schedule: Q01DX005 (ip), vehicle: Klucel (hydroxypropylcellulose) (HPC)) was 2 of 6.
In the case of `COc1ccc(-n2cnc3[nH]ncc3c2=O)cc1`, the survivor count (dose: 60.0 mg/kg/injection, schedule: Q01DX005 (ip), vehicle: Klucel (hydroxypropylcellulose) (HPC)) is reported as 6 of 6, the survivor count [9] is reported as 6 of 6 and the survivor count [10] is reported as 0 of 6.
For `CCCCOc1ccc(-c2cnc(-c3ccc(-c4ncc(-c5ccc(OCCCC)cc5)o4)cc3)o2)cc1`, the survivor count (dose: 12.0 mg/kg/injection, schedule: Q01DX005 (ip), vehicle: saline with Tween-80) was 5 of 5 and the survivor count (dose: 12.5 mg/kg/injection, schedule: Q01DX005 (ip), vehicle: saline with Tween-80) was 5 of 5.
With `CCCCCCC1NC1Cc1ccccc1Cl` (stereo unspecified) the survivor count [5] was 0 of 6, the survivor count [8] was 0 of 6 and the survivor count (dose: 400.0 mg/kg/injection, schedule: Q01DX009 (ip), vehicle: saline with Tween-80) was 0 of 6.
For `OC(c1ccccc1)(C1CCNCC1)C1CC1` (stereo unspecified), the T/C (dose: 100.0 mg/kg/injection, schedule: Q01DX001 (ip), vehicle: saline) was 131 % of control, the survivor count (dose: 200.0 mg/kg/injection, schedule: Q01DX001 (ip), vehicle: Klucel (hydroxypropylcellulose) (HPC)) was 1 of 6 and the survivor count (dose: 400.0 mg/kg/injection, schedule: Q01DX001 (ip), vehicle: Klucel (hydroxypropylcellulose) (HPC)) was 1 of 6.
With `CC(c1ccc(Cl)cc1)N(CCN(C)C)c1ccccn1` (stereo unspecified) the survivor count [9] was 0 of 6 and the survivor count [10] was 0 of 6.
With `N=C(N)SCCCCCCCCCCSC(=N)N` the survivor count [4] was 2 of 6 and the survivor count [5] was 0 of 6 and 3 of 6.
With `CC(C)(O)C1C2OC(=O)C1C1(O)CC3OC34C(=O)OC2C14C` (stereo unspecified) the survivor count (dose: 75.0 mg/kg/injection, schedule: Q04DX003 (ip), vehicle: saline with Tween-80) was 4 of 6.
